Values from PubChem BioAssay AID1259308 (NCATS, 2017).

Purpose: 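Candidate targets for better recombinant protein yield in mammalian cells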 (primary screen)
Cell system: human HEK293 embryonic kidney cells stably expressing firefly luciferase (HEK-CMV-Luc2-Hygro)
Reagent: single siRNA against human genes, 0.8 pmol siRNA per well
Duration: 72 h
Measurement: 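Luciferase light (ONE-Glo) measured on one replicate plate set and viability (CellTiter-Glo) on the other, scaled to a negative control siRNA, with robust z-scores and luciferase per cell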
Direction: total luciferase, z-score and total luciferase, % of control: higher = more reporter protein produced
Active means: 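An siRNA counts as active if its total luciferase robust z-score exceeds 3; genes with two or more such siRNAs out of three were retested with fresh siRNAs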
Meaning of the calls: active = raised luciferase; inactive = no rise
The deposit covers about 59,000 reagents; shown is an unselected part. About 1,510 of all reagents (2.6%) were called active. 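Calls use total luciferase alone and ignore viability, so some active siRNAs may act by altering cell number.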 Unmarked entries are inactive. Reagents against one gene are numbered here. Further read-outs or replicates are left out here. Reagent sequences are not shown.

| gene symbol | reagent | total luciferase, z-score | total luciferase, % of control |
| --- | --- | --- | --- |
| TSPYL2 (TSPY like 2) | 1 | 0.483 | 91.5 |
| TSPYL2 (TSPY like 2) | 2 | -0.0138 | 81.6 |
| TSPYL2 (TSPY like 2) | 3 | 1.22 | 106 |
| LOC729296 | 1 | 1.18 | 105 |
| LOC729296 | 2 | -0.0416 | 81.1 |
| LOC729296 | 3 | -0.0842 | 80.2 |
| UQCC3 (ubiquinol-cytochrome c reductase complex assembly factor 3) | 1 | 0.441 | 90.7 |
| UQCC3 (ubiquinol-cytochrome c reductase complex assembly factor 3) | 2 | 0.684 | 95.5 |
| UQCC3 (ubiquinol-cytochrome c reductase complex assembly factor 3) | 3 | 0.238 | 86.6 |

A few values from the entries so far.
LOC729296 #3, total luciferase, % of control = 80.2
Under “total luciferase, % of control”, TSPYL2 (TSPY like 2) #2 reads 81.6

The listing continues.
| gene symbol | reagent | total luciferase, z-score | total luciferase, % of control |
| --- | --- | --- | --- |
| DVL3 (dishevelled segment polarity protein 3) | 1 | 0.791 | 97.6 |
| DVL3 (dishevelled segment polarity protein 3) | 2 | -0.289 | 76.1 |
| DVL3 (dishevelled segment polarity protein 3) | 3 | -2.07 | 40.7 |
| POMT1 (protein O-mannosyltransferase 1) | 1 | 1.7 | 116 |
| POMT1 (protein O-mannosyltransferase 1) | 2 | -0.0649 | 80.6 |
| POMT1 (protein O-mannosyltransferase 1) | 3 | -0.858 | 64.8 |
| CRMA (cardiomyocyte maturation associated lncRNA) | 1 | 1.57 | 113 |
| CRMA (cardiomyocyte maturation associated lncRNA) | 2 | 1.44 | 110 |
| CRMA (cardiomyocyte maturation associated lncRNA) | 3 | -0.591 | 70.1 |
| RHOJ (ras homolog family member J) | 1 | 1.83 | 118 |
| RHOJ (ras homolog family member J) | 2 | 1.66 | 115 |
| RHOJ (ras homolog family member J) | 3 | 0.403 | 89.9 |
